# PubChem BioAssay AID1053208, Peter MacCallum Cancer Centre | 2014
# Screen: 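Genes whose silencing cuts survival of bone tumour cells only with doxorubicin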 (primary screen)
# System: mouse osteosarcoma cells, early-passage culture from an engineered mouse model of fibroblastic bone tumour
# Reagent: siRNA pool against mouse genes, 40 nM
# Timing: about 120 h (48 h before drug, then 72 h with drug)
# Conditions: doxorubicin 100 nM for 72 h, roughly 30-40% inhibitory dose
# Read-out: 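Luminescent ATP signal taken as viability with or without 100 nM doxorubicin for 72 h; mean of two wells set against non-targeting siRNA and turned into robust z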
# Scale: viability z-score with doxorubicin: higher = more viable cells under doxorubicin; viability z-score without drug: higher = more viable cells with knock-down alone; z-score of drug to no-drug ratio: higher = less drug sensitisation by knock-down
# Active means: 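Called active if knock-down leaves viability unchanged without drug (z within -2 to 2) but lowers it with doxorubicin (z at or under -2)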
# The deposit covers about 17,000 reagents; shown is an unselected part. In the full data, 788 (4.7%) got an active call. 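Calls rest on z-score classes alone; an extra cut-off of viability at most 70% of control was not applied to them.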 Unmarked entries are inactive. Not all columns of the deposit are shown.
Gene,PubChem SID,combined z-score class,viability z-score with doxorubicin,viability z-score without drug,z-score of drug to no-drug ratio
Bicdl2,SID152271707,no change with or without drug,0.45,-0.51,1.01
Atp6v0e2,SID152335631,high cell count without drug only,1.24,2.87,-0.45
Rad23a,SID152334666,no change with or without drug,0.11,-0.17,0.34
4932415M13Rik,SID152340773,low cell count without drug only,-1.35,-2.19,0.22
Kctd2,SID152301379,no change with or without drug,-0.34,0.34,-0.45
Hapln4,SID152333216,no change with or without drug,1.24,0,1.46
Npas3,SID152284998,no change with or without drug,0.11,0.34,0
Cog8,SID152314879,no change with or without drug,-0.67,1.01,-1.24
Mrps23,SID152332505,no change with or without drug,0.79,-0.84,1.57
Eif2s1,SID152342010,low cell count with and without drug,-4.27,-3.54,-2.47
Skint3,SID152303964,no change with or without drug,-0.9,-0.67,-0.34
Lao1,SID152280561,no change with or without drug,-1.12,0.84,-1.57
Fbxo28,SID152305241,no change with or without drug,-0.45,-0.17,-0.22
Cep72,SID152277662,no change with or without drug,0,0.84,-0.45
Olfr257,SID152320866,no change with or without drug,-0.11,1.18,-0.79
Serpina1a,SID152267336,no change with or without drug,0,0.51,-0.22
Tff3,SID152323236,no change with or without drug,1.12,0.67,0.79
Fech,SID152311920,no change with or without drug,0,-1.18,1.01
Acsf2,SID152342902,no change with or without drug,1.12,0.51,0.9
Slc20a1,SID152277635,no change with or without drug,-1.01,0.17,-1.01
Pamr1,SID152323594,no change with or without drug,-1.01,0.17,-1.01
Eda,SID152310900,no change with or without drug,1.12,-0.17,1.46
Chchd6,SID152323930,no change with or without drug,1.57,1.01,1.01
Bet1l,SID152340786,low cell count without drug only,-1.46,-3.04,0.79
Tbc1d22b,SID152336144,no change with or without drug,0,0.67,-0.34
Pilra,SID152313921,high cell count with and without drug,3.26,3.37,1.01
Ints14,SID152304084,no change with or without drug,-0.11,0.84,-0.56
Farsa,SID152290747,no change with or without drug,-0.22,0.84,-0.67
Zbtb12,SID152269705,no change with or without drug,0.45,0,0.56
Prl,SID152337053,no change with or without drug,0.45,-0.34,0.79
Or10j3b,SID152265057,no change with or without drug,-0.9,0.17,-0.9

Reformatted: entries from further up.
Bet1l [SID152340786] — combined z-score class = low cell count without drug only; viability z-score with doxorubicin = -1.46; viability z-score without drug = -3.04; z-score of drug to no-drug ratio = 0.79
Tbc1d22b [SID152336144] — combined z-score class = no change with or without drug; viability z-score with doxorubicin = 0; viability z-score without drug = 0.67; z-score of drug to no-drug ratio = -0.34
Pilra [SID152313921] — combined z-score class = high cell count with and without drug; viability z-score with doxorubicin = 3.26; viability z-score without drug = 3.37; z-score of drug to no-drug ratio = 1.01
Ints14 [SID152304084] — combined z-score class = no change with or without drug; viability z-score with doxorubicin = -0.11; viability z-score without drug = 0.84; z-score of drug to no-drug ratio = -0.56
Farsa [SID152290747] — combined z-score class = no change with or without drug; viability z-score with doxorubicin = -0.22; viability z-score without drug = 0.84; z-score of drug to no-drug ratio = -0.67
Zbtb12 [SID152269705] — combined z-score class = no change with or without drug; viability z-score with doxorubicin = 0.45; viability z-score without drug = 0; z-score of drug to no-drug ratio = 0.56
Prl [SID152337053] — combined z-score class = no change with or without drug; viability z-score with doxorubicin = 0.45; viability z-score without drug = -0.34; z-score of drug to no-drug ratio = 0.79

The results go on:
Gene,PubChem SID,combined z-score class,viability z-score with doxorubicin,viability z-score without drug,z-score of drug to no-drug ratio
Gabra2,SID152283165,no change with or without drug,0.67,0.34,0.56
Gemin5,SID152317317,no change with or without drug,0.34,1.69,-0.67
Aph1c,SID152285870,no change with or without drug,-1.8,0.34,-2.02
Cngb1,SID152318815,low cell count with doxorubicin only (active),-2.02,-0.51,-1.69
Cngb1,SID152326894,no change with or without drug,0.56,-0.51,1.12
Tut4,SID152326247,no change with or without drug,-0.67,0.34,-0.79
Pxmp2,SID152272979,no change with or without drug,-1.35,-0.34,-1.12
Snx8,SID152300186,no change with or without drug,-0.67,-1.18,0.22
Rbm4b,SID152268644,no change with or without drug,0,0.17,0
Tlr6,SID152317645,no change with or without drug,0.9,0,1.01
Hsp90b1,SID152299787,no change with or without drug,-0.11,0.34,-0.22
Cdc42ep3,SID152325215,no change with or without drug,0.67,0.51,0.45
Psmb6,SID152316684,low cell count with and without drug,-2.7,-2.19,-1.46
Dennd11,SID152287094,no change with or without drug,-0.67,0.51,-0.9
Ak1,SID152260422,no change with or without drug,-0.22,-0.17,0
Cdc6,SID152316261,no change with or without drug,1.12,-0.17,1.46
Ctla2a,SID152277944,no change with or without drug,0.45,0.34,0.34
B4galt6,SID152263873,no change with or without drug,-0.45,-0.17,-0.22
Prpf38b,SID152260983,no change with or without drug,0.22,0.51,0
